Our source for the binding values is patent publication US20060222661A1.

No constants are given. Whether binding was seen depends on the method and setting. Some binding calls cover weakened binding; strength is not graded here.

The target in the test is HCV E2 glycoprotein of genotype 1a, C-terminally truncated form (deletion of the C-terminal Ala 746 residue) (hepatitis C virus genotype 1a, strain H) (UniProt P27958). The experiment in a line: conclusion from hCD81-LEL precipitation and inhibition of HCVpp infection.

B1: human CD81 (on Huh-7 cells and human primary hepatocytes) (receptor)
chain: MGVEGCTKCIKYLLFVFNFVFWLAGGVILGVALWLRHDPQTTNLLYLELGDKPAPNTFYVGIYILIAVGAVMMFVGFLGCYGAIQESQCLLGTFFTCLVILFACEVAAGIWGFVNKDQIAKDVKQFYDQALQQAVVDDDANNAKAVVKTFHETLDCCGSSTLTALTTSVLKNNLCPSGSNIISNLFKEDCHQKIDDLFSGKLYLIGIAAIVVAVIMIFEMILSMVLCCGIRNSSVY
Take B1: the binding entry is given as “binds”.
